Assay results from doi:10.1101/2022.10.30.514394.
Read-outs that look alike come from different tables or passages of the source. Results are given in words; binding and its absence hold for the method and conditions named. In cells and extracts the contact can be indirect. Some entries that bind do so weakly or less than the wild type.

Protein sequences, listed by entry. Tags and fused reporters are not part of them.
UniProt Q62521: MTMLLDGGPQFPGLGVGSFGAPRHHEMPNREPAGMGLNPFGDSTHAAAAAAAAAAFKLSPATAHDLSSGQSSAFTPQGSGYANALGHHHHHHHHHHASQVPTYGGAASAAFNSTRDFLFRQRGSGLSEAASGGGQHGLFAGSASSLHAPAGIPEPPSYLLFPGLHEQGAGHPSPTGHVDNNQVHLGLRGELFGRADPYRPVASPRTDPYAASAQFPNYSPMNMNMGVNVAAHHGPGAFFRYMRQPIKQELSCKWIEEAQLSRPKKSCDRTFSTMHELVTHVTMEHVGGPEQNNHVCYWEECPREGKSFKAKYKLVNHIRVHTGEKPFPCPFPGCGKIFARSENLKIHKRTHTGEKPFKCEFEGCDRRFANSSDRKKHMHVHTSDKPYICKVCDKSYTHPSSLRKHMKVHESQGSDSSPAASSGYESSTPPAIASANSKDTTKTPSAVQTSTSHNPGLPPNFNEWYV
UniProt P41164: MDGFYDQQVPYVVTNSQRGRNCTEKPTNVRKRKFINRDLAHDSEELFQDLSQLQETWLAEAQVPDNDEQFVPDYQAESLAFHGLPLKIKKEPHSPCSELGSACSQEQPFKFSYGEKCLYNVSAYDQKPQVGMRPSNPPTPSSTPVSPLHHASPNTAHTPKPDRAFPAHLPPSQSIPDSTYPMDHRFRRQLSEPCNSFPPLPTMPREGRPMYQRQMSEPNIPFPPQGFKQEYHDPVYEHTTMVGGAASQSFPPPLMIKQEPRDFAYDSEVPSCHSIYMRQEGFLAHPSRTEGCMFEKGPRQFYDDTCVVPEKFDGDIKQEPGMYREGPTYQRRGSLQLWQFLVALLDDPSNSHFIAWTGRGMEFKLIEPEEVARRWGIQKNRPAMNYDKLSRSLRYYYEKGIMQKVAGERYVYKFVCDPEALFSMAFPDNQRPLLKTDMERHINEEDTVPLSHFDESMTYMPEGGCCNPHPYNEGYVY
UniProt P46684: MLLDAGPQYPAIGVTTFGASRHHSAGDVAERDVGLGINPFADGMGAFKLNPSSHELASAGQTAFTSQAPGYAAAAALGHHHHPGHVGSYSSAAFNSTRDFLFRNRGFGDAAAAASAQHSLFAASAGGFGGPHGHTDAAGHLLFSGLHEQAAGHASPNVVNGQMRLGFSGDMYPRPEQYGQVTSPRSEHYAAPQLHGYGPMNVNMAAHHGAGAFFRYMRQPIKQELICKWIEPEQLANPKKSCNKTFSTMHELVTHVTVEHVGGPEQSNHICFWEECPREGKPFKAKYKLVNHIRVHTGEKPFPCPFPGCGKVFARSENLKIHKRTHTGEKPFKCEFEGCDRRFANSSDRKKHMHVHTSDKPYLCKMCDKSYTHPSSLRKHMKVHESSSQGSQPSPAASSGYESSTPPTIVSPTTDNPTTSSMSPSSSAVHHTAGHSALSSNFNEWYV

Columns and labels:
Test in all cases: co-IP
[1] = target: ZIC3, endogenous in mouse olfactory bulb (mouse (endogenous in olfactory bulb)) (UniProt Q62521)
3X FLAG-ER81 (mouse) [2] = target: 3X FLAG-ER81 (mouse) (UniProt P41164)
3X FLAG-ER81 (mouse) [3] = target: 3X FLAG-ER81 (mouse) (UniProt P41164); remark: listed apart in the source
[4] = target: ER81, endogenous in mouse olfactory bulb (mouse (endogenous in olfactory bulb)) (UniProt P41164)

How did the binding [1] turn out when “ER81, endogenous in mouse olfactory bulb (from UniProt P41164 1-477)” was run?
Its binding is “binds”.

Which binding (3X FLAG-ER81 (mouse) [2]) does the source give for ZIC1 (from UniProt P46684 1-447) here?
Its binding is “no binding”.

With “ZIC3-GST (full length ZIC3, Zinc finger transcription factor of Cerebellum 3) (from UniProt Q62521 1-466)” as the substance, how does the binding (3X FLAG-ER81 (mouse) [2]) read?
Its binding is “binds”.

What about the binding (3X FLAG-ER81 (mouse) [3]) of the same substance?
The binding was “binds”.

With “ZIC3, endogenous in mouse olfactory bulb (from UniProt Q62521 1-466)” as the substance, how does the binding [4] read?
Its binding is “binds”.
